This is one part of the list. Repeats are few or missing, and single values can be far off.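 The apoptosis fraction was the count of cleaved-PARP antibody-stained nuclei relative to all DNA-stained nuclei, imaged in 1,536-well plates. Screening doses were set so most cells survived, and baseline and induced cleaved-PARP levels vary greatly across cell lines.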
system: WM1745; assay: cleaved PARP positive nuclei fraction relative to DMSO control; melanoma cells; higher = more apoptosis; conditions: library dose: low library concentration; 72 h

Compared with `C[C@]12O[C@H](C[C@]1(O)CO)n1c3ccccc3c3c4c(c5c6ccccc6n2c5c31)CNC4=O` [Lestaurtinib] + Oc1cc(-c2nc(-c3ccccc3)[nH]c2-c2ccncc2)ccc1Cl [L779450] (first compound 0.004 µM, partner dose 0.2 µM), `N#Cc1c(O)c2c(-c3ccc(-c4ccccc4O)cc3)csc2[nH]c1=O` + C/C(O)=C(\C#N)C(=O)Nc1cc(Br)ccc1Br [LFM-A13] (first compound 2 µM, partner dose 2 µM) is higher in “cleaved PARP positive nuclei fraction” value: 89.2% for the first, 103% for the second.

First: COc1ccc2c(c1)CCC1C2CCC2(C)C(NCCCCCCN3C(=O)C=CC3=O)CCC12 (configuration not stated) + C/C(O)=C(\C#N)C(=O)Nc1cc(Br)ccc1Br [LFM-A13] (first compound 0.4 µM, partner dose 2 µM)
Second: O=C(O)c1ccc(-c2c[nH]c3ncc(-c4ccccc4)cc23)cc1C1CCCC1 + O=C(Oc1ccc([N+](=O)[O-])cc1)N1CCC(C(O)(c2ccc3c(c2)OCO3)c2ccc3c(c2)OCO3)CC1 [JZL184] (first compound 0.16 µM, partner dose 1 µM)
The “cleaved PARP positive nuclei fraction” value of the first is higher: 114% for the first, 102% for the second.

First: Cc1cc(SCc2sc(-c3ccc(C(F)(F)F)c(F)c3)nc2C)ccc1OCC(=O)O + C/C(O)=C(\C#N)C(=O)Nc1cc(Br)ccc1Br [LFM-A13] (first compound 2 µM, partner dose 2 µM)
Second: COc1ccc(COc2ccc(Cc3cnc(N)nc3N)cc2OC)cc1 + Cc1cc(SCc2sc(-c3ccc(C(F)(F)F)c(F)c3)nc2C)ccc1OCC(=O)O [GW0742] (first compound 1 µM, partner dose 2 µM)
The “cleaved PARP positive nuclei fraction” value of the first is lower: 103% for the first, 112% for the second.

Compared with `COC(=O)c1sccc1S(=O)(=O)Nc1ccc(Nc2ccccc2)cc1OC` + C/C(O)=C(\C#N)C(=O)Nc1cc(Br)ccc1Br [LFM-A13] (first compound 1 µM, partner dose 2 µM), `COc1cc2ncnc(Nc3ccc(Oc4ccccc4)cc3)c2cc1OC` + O=C(Oc1ccc([N+](=O)[O-])cc1)N1CCC(C(O)(c2ccc3c(c2)OCO3)c2ccc3c(c2)OCO3)CC1 [JZL184] (first compound 2 µM, partner dose 1 µM) is lower in “cleaved PARP positive nuclei fraction” value: 108% for the first, 104% for the second.

Going from `C[C@@H]1CCN(C(=O)CC#N)C[C@@H]1N(C)c1ncnc2[nH]ccc12` + Cc1cc(SCc2sc(-c3ccc(C(F)(F)F)c(F)c3)nc2C)ccc1OCC(=O)O [GW0742] (first compound 1 µM, partner dose 2 µM) to `C/C(O)=C(\C#N)C(=O)Nc1cc(Br)ccc1Br` + O=C(Oc1ccc([N+](=O)[O-])cc1)N1CCC(C(O)(c2ccc3c(c2)OCO3)c2ccc3c(c2)OCO3)CC1 [JZL184] (first compound 2 µM, partner dose 1 µM), the “cleaved PARP positive nuclei fraction” value rises from 98.3% to 101%.

Going from `O=C(Nc1cccc(Cl)c1)Nc1ncc(CCNc2ncnc3ccsc23)s1` + Cc1cc(SCc2sc(-c3ccc(C(F)(F)F)c(F)c3)nc2C)ccc1OCC(=O)O [GW0742] (first compound 0.0008 µM, partner dose 2 µM) to `Cc1ccc(NC(=O)c2cccc(N(C)C)c2)cc1NC(=O)c1ccc(O)cc1` + C/C(O)=C(\C#N)C(=O)Nc1cc(Br)ccc1Br [LFM-A13] (first compound 2 µM, partner dose 2 µM), the “cleaved PARP positive nuclei fraction” value rises from 107% to 119%.

Compared with `C[C@]12O[C@H](C[C@]1(O)CO)n1c3ccccc3c3c4c(c5c6ccccc6n2c5c31)CNC4=O` [Lestaurtinib] + COc1cc2ncnc(Nc3ccc(Oc4ccccc4)cc3)c2cc1OC [SrcI1] (first compound 0.004 µM, partner dose 2 µM), `COc1cc(Nc2ncc(F)c(Nc3ccc4c(n3)NC(=O)C(C)(C)O4)n2)cc(OC)c1OC` [Tamatinib] + O=C(Oc1ccc([N+](=O)[O-])cc1)N1CCC(C(O)(c2ccc3c(c2)OCO3)c2ccc3c(c2)OCO3)CC1 [JZL184] (first compound 0.4 µM, partner dose 1 µM) is higher in “cleaved PARP positive nuclei fraction” value: 96.4% for the first, 137% for the second.

Compared with `C[As](C)SC[C@H](NC(=O)CC[C@H](N)C(=O)O)C(=O)NCC(=O)O` [Darinaparsin] + COc1ccc(COc2ccc(Cc3cnc(N)nc3N)cc2OC)cc1 [GW2580] (first compound 0.4 µM, partner dose 1 µM), `C/C(O)=C(\C#N)C(=O)Nc1cc(Br)ccc1Br` + CC(C)CCN1c2nc(Nc3cc(F)c(O)c(F)c3)ncc2N(C)C(=O)C1C [BID1870] (first compound 2 µM, partner dose 0.2 µM) is higher in “cleaved PARP positive nuclei fraction” value: 119% for the first, 265% for the second.

Going from `C[C@]12O[C@H](C[C@]1(O)CO)n1c3ccccc3c3c4c(c5c6ccccc6n2c5c31)CNC4=O` [Lestaurtinib] + COc1ccc(-c2ccc3c(N4CCOCC4)nc(N4C[C@@H](C)O[C@@H](C)C4)nc3n2)cc1CO [KU0063794] (first compound 0.004 µM, partner dose 0.02 µM) to `O=C(Oc1ccc([N+](=O)[O-])cc1)N1CCC(C(O)(c2ccc3c(c2)OCO3)c2ccc3c(c2)OCO3)CC1` + CC(C)CCN1c2nc(Nc3cc(F)c(O)c(F)c3)ncc2N(C)C(=O)C1C [BID1870] (first compound 1 µM, partner dose 0.2 µM), the “cleaved PARP positive nuclei fraction” value rises from 92.6% to 94.6%.

Compared with `O=S(=O)(c1ccccc1)N(CC(F)(F)F)c1ccc(C(O)(C(F)(F)F)C(F)(F)F)cc1` + Cc1cc(SCc2sc(-c3ccc(C(F)(F)F)c(F)c3)nc2C)ccc1OCC(=O)O [GW0742] (first compound 1.4 µM, partner dose 2 µM), `C[C@]12O[C@H](C[C@]1(O)CO)n1c3ccccc3c3c4c(c5c6ccccc6n2c5c31)CNC4=O` [Lestaurtinib] + C[C@@H]1CCN(C(=O)CC#N)C[C@@H]1N(C)c1ncnc2[nH]ccc12 [CP690550] (first compound 0.004 µM, partner dose 1 µM) is higher in “cleaved PARP positive nuclei fraction” value: 137% for the first, 174% for the second.

Going from `C[As](C)SC[C@H](NC(=O)CC[C@H](N)C(=O)O)C(=O)NCC(=O)O` [Darinaparsin] + CCc1ccc(CCOc2ccc(CC3SC(=O)NC3=O)cc2)nc1 [pioglitazone] (first compound 0.4 µM, partner dose 2 µM) to `CO[C@H]1C[C@@H]2CC[C@@H](C)[C@@](O)(O2)C(=O)C(=O)N2CCCC[C@H]2C(=O)O[C@H]([C@H](C)C[C@@H]2CC[C@@H](OCCO)[C@H](OC)C2)CC(=O)[C@H](C)/C=C(\C)[C@@H](O)[C@@H](OC)C(=O)[C@H](C)C[C@H](C)/C=C/C=C/C=C/1C` [everolimus] + Cc1cc(SCc2sc(-c3ccc(C(F)(F)F)c(F)c3)nc2C)ccc1OCC(=O)O [GW0742] (first compound 0.02 µM, partner dose 2 µM), the “cleaved PARP positive nuclei fraction” value falls from 105% to 94.4%.

From the supplement of paper PMC4604168 (melanoma cell lines)
